These results are taken from PMC6657086.

By UniProt entry, the sequences of proteins in these tests, tags left out.
UniProt P17096: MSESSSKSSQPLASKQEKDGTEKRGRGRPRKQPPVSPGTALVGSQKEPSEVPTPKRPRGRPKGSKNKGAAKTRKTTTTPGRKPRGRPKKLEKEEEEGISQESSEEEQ

These are yes or no findings as the source states them, for the method shown. Binding seen in cells or lysates may run through a third protein. Some results given as binding are weak or reduced against the parent protein; the word gives no strength. Tags and fused reporters may be left off the sequences shown.

Experiment [1] has as its target T1, Flag-KIFC1, transfected in HEK-293 T cells (human) (UniProt Q9BW19).
T1 sequence: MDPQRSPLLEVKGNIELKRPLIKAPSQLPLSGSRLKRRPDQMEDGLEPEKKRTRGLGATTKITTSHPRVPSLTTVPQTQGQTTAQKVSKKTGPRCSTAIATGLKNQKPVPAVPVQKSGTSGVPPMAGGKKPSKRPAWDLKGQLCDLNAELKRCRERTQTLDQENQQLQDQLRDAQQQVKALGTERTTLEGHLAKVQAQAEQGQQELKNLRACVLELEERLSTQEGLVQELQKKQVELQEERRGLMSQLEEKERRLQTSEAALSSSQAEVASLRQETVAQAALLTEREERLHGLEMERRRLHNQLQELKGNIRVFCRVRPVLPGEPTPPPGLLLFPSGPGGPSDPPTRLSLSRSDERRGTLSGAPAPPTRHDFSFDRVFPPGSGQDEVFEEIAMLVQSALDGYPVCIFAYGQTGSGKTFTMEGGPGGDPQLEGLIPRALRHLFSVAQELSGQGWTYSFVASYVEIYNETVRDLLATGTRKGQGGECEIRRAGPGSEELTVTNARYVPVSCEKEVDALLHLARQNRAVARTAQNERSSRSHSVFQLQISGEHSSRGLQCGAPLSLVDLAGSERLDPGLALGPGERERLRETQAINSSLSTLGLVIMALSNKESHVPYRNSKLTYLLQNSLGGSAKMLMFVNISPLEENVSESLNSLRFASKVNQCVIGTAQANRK
Kind of experiment: co-IP; HEK-293 T cells transfected with Flag-KIFC1 or Myc-HMGA1 or both; Flag-tag and Myc-tag antibodies; western blot. A general note: A western blot detects proteins with antibodies after separation by electrophoresis.

Experiment [2] has as its target T2, KIFC1-Flag (kinesin family member C1), stably expressed in HepG2 cells (human) (UniProt Q9BW19).
T2 sequence: T1 sequence
Kind of experiment: co-IP; HepG2-vector and HepG2-KIFC1-Flag cell lysates; Flag tag antibody and HMGA1 antibody (ab129153); western blot.

For the substance “Myc-HMGA1, transfected in HEK-293 T cells (from UniProt P17096 1-107)”, in experiment [1], the binding result is listed as “binds”.

Consider “HMGA1 (high mobility group AT-hook 1), endogenous in HepG2 cells (from UniProt P17096 1-107)”, for which the binding result in experiment [2] is “binds”.
